Assay results published in PubChem BioAssay AID1347075 (National Center for Advancing Translational Sciences (NCATS), 2019).
About 5,500 (1.4%) of roughly 400,000 compounds were called active. The inconclusive results got no clear call from the source; some entries with a clear call stand among them for comparison. Calls come from the whole dose curve; as a rule, active = well fitted cell-killing curve with a large enough effect; inconclusive = small, poorly fitted or top-dose-only effect, or effect the other way; inactive = flat fitted curve, though single readings scatter. Where the call is inconclusive, the potency comes from a doubtful curve fit.

Assay: qHTS assay for MDR1-selective chemotherapeutics: Primary screen using the parental adenocarcinoma cell KB-3-1; note: nearly all actives have a fitted effect of over 60% in size
Conditions: KB-3-1 viability, CellTiter-Glo ATP luminescence, 72 h; activity change, negative = cytotoxic: at 46.1 µM (top of the series)
In short: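 Here the drug-naive KB-3-1 line serves as comparator for MDR sub-line selectivity; cells received compound titrations, 72 h at 37 °C, then CellTiter-Glo readout.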
% is set by controls: 0 for no effect and ±100 for the full control effect; potency is the fitted concentration of half-maximal effect.

SMILES	Potency	activity change, negative = cytotoxic
COc1cccc(NC(=O)c2oc3ccccc3c2NC(=O)c2ccc3c(c2)OCO3)c1	inconclusive: 35.5 µM [cytotoxic, partial curve, poor fit]	
CC(C)C[C@H](NC(=O)c1nc[nH]c1C(=O)NCCCCCNC(=O)OC(C)(C)C)C(=O)OC(C)(C)C	inconclusive: 29.1 µM [cytotoxic, single point]	
CC(=O)Nc1ccc(NC(=O)C2CCCN2S(=O)(=O)c2ccc3c(c2)CCCC(=O)N3)cc1 (configuration not stated)		inactive: 3.24%
O=C(NC1CCCCCC1)C1CCN(C(=O)c2ccc(Br)cc2)CC1		inactive: -3.03%
Cc1cc(=O)oc2cc(OCC(=O)N3c4ccccc4CC3C)ccc12 (configuration not stated)	active: 2.91 µM	
Cc1[nH]n(-c2ccccc2)c(=S)c1C=Nc1cccc([N+](=O)[O-])c1		inactive: 2.15%
C=CCNC(=O)c1onc(CCl)c1C(=O)OC	inconclusive: 29.1 µM [cytotoxic, single point]	
COc1ccc(OC)c(S(=O)(=O)N/N=C\c2ccc3c(c2)OCO3)c1		inactive: 3%
CCNc1nc(C#N)nc(Nc2ccccc2)n1		inconclusive: 26.4%
O=C(Nc1ccc2oc(-c3cccnc3)nc2c1)c1ccc(-c2ccc(OC(F)(F)F)cc2)o1		inactive: -12%
CC1CN(C(=O)CCC(=O)NCc2ccc(Cl)cc2)c2ccccc2S1 (configuration not stated)	inconclusive: 0.82 µM [cytotoxic, full curve]	
Cc1c(C=O)c2ccccn2c1C(=O)c1ccc(Cl)c([N+](=O)[O-])c1		inactive: 11.2%
CCS(=O)(=O)N1CCC(c2nc(-c3ccc(C(F)(F)F)cc3)no2)CC1	active: 6.51 µM	
CN1CCc2nc3sc(C(=O)NCc4ccccc4)c(N)c3cc2C1		inactive: -23.5%
COc1ccccc1-n1c(SC(C)C(=O)NCC2CCCO2)nc2cc(Cl)ccc2c1=O (configuration not stated)	inconclusive: 13 µM [rising, partial curve]	
O=C(COc1nc2ccccc2nc1N1CCOCC1)NCC(F)(F)F		inconclusive: -4.77%
COCCCNc1nc2cc(OC)c(OC)cc2c2nc(-c3ccccc3)nn12	inactive	
Cc1ccc(NC(=S)Nc2cccc3cnccc23)cc1C	inconclusive: 29.1 µM [cytotoxic, single point]	
COCCN1C[C@@H](CO)O[C@@H](n2cnc3c(NCc4ccncc4)ncnc32)C1		inactive: -0.377%
CCN(CC)S(=O)(=O)c1ccc(N/N=C/c2cc(OC)ccc2O)nc1	inconclusive: 6.51 µM [cytotoxic, partial curve]	
CN1CCc2nc(NC(=O)COc3ccc4ccccc4c3)sc2C1	inconclusive: 4.61 µM [cytotoxic, full curve]	
O=C(NC1CCCC1)C(c1ccc(F)cc1)N(Cc1ccc(F)cc1)C(=O)CCl (configuration not stated)	inconclusive: 25.9 µM [cytotoxic, partial curve, poor fit]	
c1cc(CNC2C3CC4CC(C3)CC2C4)ccn1 (configuration not stated)	inconclusive: 25.9 µM [cytotoxic, partial curve, poor fit]	
COc1cccc(-c2nn(-c3ccc(C)cc3)cc2C(=O)N(C)CC(=O)Nc2cccc(F)c2)c1	inconclusive: 23.1 µM [cytotoxic, single point]	

SMILES	Potency	activity change, negative = cytotoxic
N#Cc1c(-c2ccccc2)c(-c2ccccc2)n[nH]c1=O	inconclusive: 32.6 µM [cytotoxic, partial curve, poor fit]	
CCCC(=O)Nc1ccc(Cl)c(NC(=O)c2cccc(OC)c2)c1	inconclusive: 29.1 µM [rising, single point]	
Cc1cccc(NC(=O)c2cc(-c3ccc(C)s3)nc3ccccc23)n1	inconclusive: 29.1 µM [cytotoxic, single point]	
CC(=O)Nc1ccc(S(=O)(=O)Oc2ccc(C(=S)N3CCC(O)CC3)cc2)cc1		inactive: -13.2%
COC(=O)C1=CN(c2ccc(OC)cc2)C(N)=C(C#N)C1c1cccc2ccccc12 (configuration not stated)	active: 18.4 µM	
COC(=O)Cc1c(C)c2ccc3c(c2oc1=O)CN(Cc1ccc(Cl)cc1)CO3		inactive: -5.8%
CC(NCC(=O)NC(=O)NC1CCCC1)c1ccc(Cl)cc1Cl (configuration not stated)	inconclusive: 6.51 µM [rising, partial curve, poor fit]	
COc1ccc(-c2cc(C(F)(F)F)n3ncc(C(=O)N4CCCCC4c4cccnc4)c3n2)cc1 (configuration not stated)	inconclusive: 29.1 µM [cytotoxic, single point]	
Cc1cccc(NC2CNC(=O)NC2=O)c1 (configuration not stated)	inconclusive: 5.8 µM [rising, single point]	
O=C(N/N=C/c1ccc(N2CCOCC2)cc1)c1ccc(NS(=O)(=O)c2cccs2)cc1	inconclusive: 25.9 µM [rising, single point]	
O=C(c1nc2ccc(Cl)cn2c1CNCCc1cnccn1)N1CCCCCCC1		inactive: 0.042%
CCCCn1c(N)c(N(C)C(=O)c2cc3c(s2)CCCCC3)c(=O)[nH]c1=O	inconclusive: 29.1 µM [rising, partial curve, poor fit]	
CCCCNC(=O)COC(=O)c1c2c(nc3ccccc13)/C(=C\c1cccs1)CC2	inconclusive: 29.1 µM [cytotoxic, single point]	
Nc1ccc2c(O)cc(S(=O)(=O)O)cc2c1	inconclusive: 14.6 µM [cytotoxic, single point]	
COc1ccc(/C=N/NC(=O)CCn2nc(C)cc2C)cc1	inconclusive: 29.1 µM [rising, single point]	
CCOC(=O)CNC(=O)CSc1ccc2nnc(-c3cccnc3)n2n1	inconclusive: 29.1 µM [rising, single point]	
CCOC(=O)CNC(=O)CSc1ncnc2c1nnn2-c1ccc(F)cc1	inconclusive: 29.1 µM [cytotoxic, single point]	
O=C(NC1CC2CCC(C1)N2C(=O)NCc1ccccc1)C1CC1 (configuration not stated)		inactive: -4.76%
Cc1ccc2c(c1)NC(=O)C(CC(=O)NCCCN1CCN(c3cc(C)ccc3C)CC1)O2 (configuration not stated)	inconclusive: 23.1 µM [cytotoxic, partial curve]	
Cc1ccccc1OCc1nnc(SCc2cc(=O)c3cc(F)ccc3[nH]2)n1C	active: 20.6 µM	
CCCCC[C@@H](C)N1C[C@@H](COCc2ccccc2)Oc2cc(N3CC[C@@H](O)C3)ccc2S1(=O)=O	inconclusive: 16.4 µM [cytotoxic, single point]	
C[C@]12CC[C@@H]3c4ccc(O)cc4C(=O)C[C@H]3[C@@H]1CC[C@@H]2O		inactive: 0%
COc1ccc([N+](=O)[O-])c(S(=O)(=O)c2ccc(Cl)cc2)n1	inconclusive: 25.9 µM [cytotoxic, single point]	
COc1cc(NC(=O)c2cncc(-c3ccc(C#N)cc3)c2)cc(C(=O)Nc2cccc(C(F)(F)F)c2)c1	inconclusive: 29.1 µM [cytotoxic, single point]	

Part of the list above, set out differently.

| SMILES | Potency | activity change, negative = cytotoxic |
| --- | --- | --- |
| O=C(N/N=C/c1ccc(N2CCOCC2)cc1)c1ccc(NS(=O)(=O)c2cccs2)cc1 | inconclusive: 25.9 µM [rising, single point] |  |
| O=C(c1nc2ccc(Cl)cn2c1CNCCc1cnccn1)N1CCCCCCC1 |  | inactive: 0.042% |
| CCCCn1c(N)c(N(C)C(=O)c2cc3c(s2)CCCCC3)c(=O)[nH]c1=O | inconclusive: 29.1 µM [rising, partial curve, poor fit] |  |
| CCCCNC(=O)COC(=O)c1c2c(nc3ccccc13)/C(=C\c1cccs1)CC2 | inconclusive: 29.1 µM [cytotoxic, single point] |  |
| Nc1ccc2c(O)cc(S(=O)(=O)O)cc2c1 | inconclusive: 14.6 µM [cytotoxic, single point] |  |
| COc1ccc(/C=N/NC(=O)CCn2nc(C)cc2C)cc1 | inconclusive: 29.1 µM [rising, single point] |  |
| CCOC(=O)CNC(=O)CSc1ccc2nnc(-c3cccnc3)n2n1 | inconclusive: 29.1 µM [rising, single point] |  |
| CCOC(=O)CNC(=O)CSc1ncnc2c1nnn2-c1ccc(F)cc1 | inconclusive: 29.1 µM [cytotoxic, single point] |  |
| O=C(NC1CC2CCC(C1)N2C(=O)NCc1ccccc1)C1CC1 (configuration not stated) |  | inactive: -4.76% |
| Cc1ccc2c(c1)NC(=O)C(CC(=O)NCCCN1CCN(c3cc(C)ccc3C)CC1)O2 (configuration not stated) | inconclusive: 23.1 µM [cytotoxic, partial curve] |  |
| Cc1ccccc1OCc1nnc(SCc2cc(=O)c3cc(F)ccc3[nH]2)n1C | active: 20.6 µM |  |
| CCCCC[C@@H](C)N1C[C@@H](COCc2ccccc2)Oc2cc(N3CC[C@@H](O)C3)ccc2S1(=O)=O | inconclusive: 16.4 µM [cytotoxic, single point] |  |
| C[C@]12CC[C@@H]3c4ccc(O)cc4C(=O)C[C@H]3[C@@H]1CC[C@@H]2O |  | inactive: 0% |
| COc1ccc([N+](=O)[O-])c(S(=O)(=O)c2ccc(Cl)cc2)n1 | inconclusive: 25.9 µM [cytotoxic, single point] |  |

(continued)

SMILES	Potency	activity change, negative = cytotoxic
Fc1cccc(Cl)c1C1SCc2nc3ccccc3n21 (configuration not stated)	active: 23.1 µM	
COc1ccc(-c2ccc(CCC(=O)O)n2-c2ccccc2C(F)(F)F)cc1	active: 18.4 µM	
CS(=O)(=O)c1ccc(-c2cccc(NC(=O)c3ccco3)c2)nn1		inactive: -4.73%
Cc1cc(C)c2c(C)c(C(=O)NCc3ccc(S(N)(=O)=O)cc3)oc2c1	inconclusive: 18.4 µM [cytotoxic, single point]	
CCn1cc(C(=O)NCC(OC)OC)c(=O)c2cc(S(=O)(=O)N3CCC(C)CC3)ccc21	active: 13 µM	
COc1ccc(NS(=O)(=O)c2ccc(N3CCCC3)c(N)c2)cc1	inconclusive: 23.1 µM [cytotoxic, single point]	
CCOC(=O)CN(Cc1ccccc1)C(C(=O)NC1CCCCC1)c1ccccc1 (configuration not stated)	inconclusive: 32.6 µM [cytotoxic, single point]	
O=C(OCCN1C(=O)c2ccccc2C1=O)c1cc(S(=O)(=O)N2CCOCC2)ccc1Cl		inactive: -2.8%
O=C(Cn1c(=O)c(=O)n(Cc2ccccc2)c2ccc(Cl)cc21)Nc1cccc(F)c1		inactive: -20.6%
Cc1c(C(=O)Nc2ccc3c(c2)OCCO3)sc2ncnc(N3CCCCC3C)c12 (configuration not stated)	active: 18.4 µM	
CCN1c2ccccc2-c2nc(SCC(=O)Nc3cc(OC)cc(OC)c3)ncc2S1(=O)=O		inactive: -0.88%
Cc1ccc(NS(=O)(=O)c2ccc(C3CCCCC3)cc2)cc1	inconclusive: 29.1 µM [cytotoxic, single point]	
COC(=O)c1cc(NC(=O)c2cc(-c3ccc(C(F)(F)F)cc3)oc2C(F)(F)F)ccc1N1CCOCC1	inconclusive: 29.1 µM [cytotoxic, single point]	
CCOc1ccccc1OCCC(=O)N1CCN(S(=O)(=O)c2ccccc2[N+](=O)[O-])CC1	inconclusive: 6.51 µM [cytotoxic, partial curve]	
O=C(NC1CC1)c1sc2ccccc2c1Cl		inactive: 2.05%
COc1nc(NC2OC(CO)C(O)C(O)C2O)c(N)c(=O)[nH]1 (configuration not stated)		inactive: -3.03%
Cc1ccc(NC(=O)Nc2nnc(CSCCOc3ccc(Cl)cc3)s2)cc1	inconclusive: 14.6 µM [cytotoxic, single point]	
COc1nc(N/N=C/c2ccc(-c3ccccc3[N+](=O)[O-])o2)nc(N2CCOCC2)n1	inconclusive: 18.4 µM [rising, single point]	
Cc1nc2c(C)cccc2cc1C(=O)N/N=C/c1ccc(O)cc1	inconclusive: 14.6 µM [cytotoxic, partial curve]	
O=C(C[n+]1cccc(Br)c1)c1ccc(Br)cc1		inactive: 4.75%
COc1ccc(C)cc1NC(=O)C1CCN(S(=O)(=O)Cc2ccccc2)CC1		inactive: 11.3%
Cc1[nH]cnc1C(=O)N/N=C/c1c(Cl)cccc1Cl	active: 16.4 µM	
CC#CC[N+](C)(C)CCCCCCCC	active: 18.4 µM	
Cn1c(=O)n(C)c2cc(N3CCCCC3)c(NC(=O)Nc3ccc(Br)cc3)cc21		inactive: -10.3%
